Patent publication US20250179195A1
Numbering of substitutions follows the chain as printed. Results are given in words; binding and its absence hold for the method and conditions named. Some binding calls cover weakened binding; strength is not graded here.

B1: anti-FLT3 antibody 17566 (antibody, human IgG1, kappa, L234A L235A, V domains shown)
VH: QVTLKESGPVLVKPTETLTLTCTVSGFSFNNARMGVNWIRQPPGKALEWLAHIFSNDEKSYSTSLKSRLTISKDISKSQVVLTMTNMDPVDTATYYCARIVGYGSGWRLLGDYWGQGTLVTVSS
VL: AIQMTQSPSSLSASVGDRVTITCRASQGITNDLGWYQQKPGKAPKLLIYAASSLQSGVPSRFSGSGSGTDFTLTISSLQPEDFATYYCLQDYNYPWTFGQGTKVEIKR
B2: anti-FLT3 antibody 17543 (antibody, human IgG1, kappa, L234A L235A, V domains shown)
VH: QVTLKESGPVLVKPTETLTLTCTVSGFSLINARMGVTWIRQPPGKALEWLAHIFSNDEKSYSTSLKSRLTISKDTSKSQVVLTMTNMDPVDTATYYCARIPGYSRGWDYYYYGMDVWGQGTMVTVSS
VL: B1 VL with A1D, T30R, L46R, S53T, D70E, D91H, Y92N, N93S
B3: anti-FLT3 antibody 17497 (antibody, human IgG1, kappa, L234A L235A, V domains shown)
VH: QVQLQESGPGLVKPSGTLSLTCAVSGGSISSTNWWSWVRQPPGKGLEWIGEISHRGSTNYNPSLKSRVTISVDKSKNQFSLKLSSVTAADTAVYYCARDPEMTLYYYYGMDVWGQGTTVTVSS
VL: B1 VL with A1D, Q27R, T30R, L46R, D70E, D91H, Y92N, N93S, W96L, Q100G

Each binder was assayed against cynomolgus FLT3 expressed on CHO-S cells (cynomolgus) (assay: flow cytometry (iQue Screener PLUS) on CHO-S cells transiently expressing cynomolgus FLT3; AF647 anti-human IgG (H+L) secondary; GeoMean RL1-H; 12-point titration).

binding, binds:
B1
B2
B3
